Our source for the binding values is patent US20020102606A1.

Sequences of proteins named here, by UniProt entry; tags and fusion partners are left off. A change or cut given only in a name is not applied to a line headed by its entry. A line that says so, or that is headed by a name, gives the form on record, which may keep a tag or linker. Residues count along the entry.
PRAK NUC 201-1104 T182D (bait) (Q8IW41, form named): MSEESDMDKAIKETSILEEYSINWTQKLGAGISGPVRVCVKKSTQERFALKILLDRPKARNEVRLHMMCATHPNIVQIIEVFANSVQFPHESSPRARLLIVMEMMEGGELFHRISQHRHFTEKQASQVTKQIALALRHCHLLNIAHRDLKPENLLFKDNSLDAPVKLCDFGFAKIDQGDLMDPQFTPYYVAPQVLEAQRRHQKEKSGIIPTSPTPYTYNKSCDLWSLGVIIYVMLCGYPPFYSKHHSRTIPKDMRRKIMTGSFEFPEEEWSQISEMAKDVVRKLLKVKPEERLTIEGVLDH
PRAK NUC 201-1104 K51M, T182D (bait) (Q8IW41, form named): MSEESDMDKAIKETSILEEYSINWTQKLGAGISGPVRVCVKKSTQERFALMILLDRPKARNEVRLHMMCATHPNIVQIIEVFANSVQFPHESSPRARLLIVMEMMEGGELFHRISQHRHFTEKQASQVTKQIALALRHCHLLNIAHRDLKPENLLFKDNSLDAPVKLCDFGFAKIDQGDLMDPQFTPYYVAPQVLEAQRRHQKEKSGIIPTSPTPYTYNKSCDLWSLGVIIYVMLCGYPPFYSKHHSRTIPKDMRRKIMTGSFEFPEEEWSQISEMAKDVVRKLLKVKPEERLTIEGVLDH
PRAK NUC 201-1609 K51M (bait) (Q8IW41, form named): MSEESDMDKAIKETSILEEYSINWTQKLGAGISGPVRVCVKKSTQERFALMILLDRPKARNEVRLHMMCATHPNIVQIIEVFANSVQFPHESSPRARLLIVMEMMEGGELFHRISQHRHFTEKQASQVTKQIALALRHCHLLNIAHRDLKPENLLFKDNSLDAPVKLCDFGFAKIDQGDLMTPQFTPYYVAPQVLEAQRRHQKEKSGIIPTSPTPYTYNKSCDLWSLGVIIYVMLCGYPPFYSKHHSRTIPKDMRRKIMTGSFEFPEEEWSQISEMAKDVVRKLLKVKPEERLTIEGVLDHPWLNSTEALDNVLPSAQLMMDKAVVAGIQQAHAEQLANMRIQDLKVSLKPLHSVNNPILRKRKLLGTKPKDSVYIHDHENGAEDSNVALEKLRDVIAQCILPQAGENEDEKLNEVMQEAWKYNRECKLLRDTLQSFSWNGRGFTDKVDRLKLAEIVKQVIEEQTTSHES
UniProt Q16644, residues 114-304: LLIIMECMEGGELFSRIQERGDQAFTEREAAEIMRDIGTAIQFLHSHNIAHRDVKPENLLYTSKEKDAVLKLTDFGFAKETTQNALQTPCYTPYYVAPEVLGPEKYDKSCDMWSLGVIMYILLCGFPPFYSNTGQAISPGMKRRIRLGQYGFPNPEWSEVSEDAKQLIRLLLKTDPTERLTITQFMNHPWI
UniProt Q9BUB5: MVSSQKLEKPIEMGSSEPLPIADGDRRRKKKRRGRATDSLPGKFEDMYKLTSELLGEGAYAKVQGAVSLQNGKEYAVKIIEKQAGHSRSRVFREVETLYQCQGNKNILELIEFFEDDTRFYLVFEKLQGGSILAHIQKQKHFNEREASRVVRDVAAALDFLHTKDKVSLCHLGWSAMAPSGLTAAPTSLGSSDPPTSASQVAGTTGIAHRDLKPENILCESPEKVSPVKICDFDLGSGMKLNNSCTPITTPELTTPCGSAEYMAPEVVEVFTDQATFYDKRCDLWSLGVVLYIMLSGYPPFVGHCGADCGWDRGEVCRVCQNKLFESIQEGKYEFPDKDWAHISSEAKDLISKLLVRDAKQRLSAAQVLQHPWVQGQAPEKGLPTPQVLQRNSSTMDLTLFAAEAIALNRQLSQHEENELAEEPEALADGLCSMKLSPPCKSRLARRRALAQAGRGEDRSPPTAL

The target in assay [1] is T1, TAB2, or TAK1 binding protein (UniProt Q9NYJ8).
T1 sequence (looked up): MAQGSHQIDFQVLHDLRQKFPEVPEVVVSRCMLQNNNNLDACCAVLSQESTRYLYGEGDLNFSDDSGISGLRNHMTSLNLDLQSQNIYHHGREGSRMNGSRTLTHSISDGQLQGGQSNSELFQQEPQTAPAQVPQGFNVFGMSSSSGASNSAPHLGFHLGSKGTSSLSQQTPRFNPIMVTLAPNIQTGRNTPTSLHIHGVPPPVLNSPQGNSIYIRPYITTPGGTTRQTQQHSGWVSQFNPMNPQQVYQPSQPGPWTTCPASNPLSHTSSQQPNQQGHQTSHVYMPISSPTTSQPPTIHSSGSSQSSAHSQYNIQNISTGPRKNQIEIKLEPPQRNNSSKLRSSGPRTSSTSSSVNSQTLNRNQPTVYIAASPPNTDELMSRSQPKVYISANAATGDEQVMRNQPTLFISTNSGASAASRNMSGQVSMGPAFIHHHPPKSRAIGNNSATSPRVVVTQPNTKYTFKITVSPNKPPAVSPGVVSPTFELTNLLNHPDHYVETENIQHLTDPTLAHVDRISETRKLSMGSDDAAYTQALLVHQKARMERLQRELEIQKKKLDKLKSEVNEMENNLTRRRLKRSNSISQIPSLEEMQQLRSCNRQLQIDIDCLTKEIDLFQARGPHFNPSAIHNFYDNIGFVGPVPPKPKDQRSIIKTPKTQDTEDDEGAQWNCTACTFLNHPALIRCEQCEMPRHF
The assay is described as follows: yeast two-hybrid.

Assay [2] has as its target PRAK NUC 201-1104 T182D (bait) (UniProt Q8IW41). The assay is described as follows: yeast two-hybrid; prey clone found with the bait of the row.
Assay [3] has as its target PRAK NUC 201-1104 K51M, T182D (bait) (UniProt Q8IW41). The assay is described as above.
The target of assay [4] is PRAK NUC 201-1104 T182D (bait) (UniProt Q8IW41). The assay is described as follows: yeast two-hybrid.
The target in assay [5] is PRAK NUC 201-1104 K51M, T182D (bait) (UniProt Q8IW41). The assay is described as follows: yeast two-hybrid.
In assay [6] the target is MAPKAP-K3 NUC 433-1003 (bait) (UniProt Q16644). Kind of assay: yeast two-hybrid; prey clone found with the bait of the row.
Assay [7] shares this target. The assay is described as follows: yeast two-hybrid.
The target in the next assay is MNK1 (UniProt Q9BUB5). Kind of assay: yeast two-hybrid.
In the next assay the target is T2, LSF (UniProt Q12800).
T2 sequence (looked up): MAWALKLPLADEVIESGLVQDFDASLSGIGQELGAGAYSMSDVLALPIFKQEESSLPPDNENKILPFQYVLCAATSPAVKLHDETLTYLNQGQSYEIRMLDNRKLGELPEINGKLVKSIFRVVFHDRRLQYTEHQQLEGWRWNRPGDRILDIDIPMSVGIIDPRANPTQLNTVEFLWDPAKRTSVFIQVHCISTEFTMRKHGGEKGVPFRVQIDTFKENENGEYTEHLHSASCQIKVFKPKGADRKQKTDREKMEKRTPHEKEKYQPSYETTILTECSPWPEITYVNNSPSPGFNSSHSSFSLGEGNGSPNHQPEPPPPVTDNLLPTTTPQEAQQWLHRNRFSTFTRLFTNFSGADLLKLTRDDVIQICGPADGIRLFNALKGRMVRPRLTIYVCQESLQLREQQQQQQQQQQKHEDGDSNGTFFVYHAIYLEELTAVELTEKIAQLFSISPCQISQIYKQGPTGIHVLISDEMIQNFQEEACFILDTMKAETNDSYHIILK
Kind of assay: yeast two-hybrid.

Assay [8] concerns the target T3, TIAR amino acids 1-48 (bait) (Mus musculus (Mouse)) (UniProt P70318).
T3 sequence: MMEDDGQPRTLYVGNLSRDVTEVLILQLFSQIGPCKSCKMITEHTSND
Kind of assay: yeast two-hybrid; prey clone found with the bait of the row.

Assay [9] has as its target T3, TIAR amino acids 1-48 (bait) (Mus musculus (Mouse)). The assay is described as follows: yeast two-hybrid.
The target of assay [10] is PRAK NUC 201-1609 K51M (bait) (UniProt Q8IW41). The assay is described as follows: yeast two-hybrid; prey clone found with the bait of the row.
For assay [11] the target is unchanged. Kind of assay: yeast two-hybrid.

These are yes or no findings as the source states them, for the method shown. Some results given as binding are weak or reduced against the parent protein; the word gives no strength.

B1: WBP-2 (construct not stated) (protein, UniProt Q969T9 1-261, looked up)
chain: MALNKNHSEGGGVIVNNTESILMSYDHVELTFNDMKNVPEAFKGTKKGTVYLTPYRVIFLSKGKDAMQSFMMPFYLMKDCEIKQPVFGANYIKGTVKAEAGGGWEGSASYKLTFTAGGAIEFGQRMLQVASQASRGEVPSGAYGYSYMPSGAYVYPPPVANGMYPCPPGYPYPPPPPEFYPGPPMMDGAMGYVQPPPPPYPGPMEPPVSGPDVPSTPAAEAKAAEAAASAYYNPGNPHNVYMPTSQPPPPPYYPPEDKKTQ
Take B1: the binding entry in assay [1] is listed as “binds”.

B2: KIAA0555 NUC 1617-1983 (prey) (protein, human, UniProt Q96AA8 440-561, looked up)
chain: DSMDSETSSMASFRTDRTPATPDDDLDESLAAEESELRFRQLTKEYQALQRAYALLQEQTGGIIDAEREAKAQEQLQAEVLRYKAKIEDLEATLAQKGQDSHWVEDKQLFIKRNQELLEKIE
For the molecule B2, the binding result in [2], in assay [3], in assay [4] and in assay [5] was “binds” throughout.

B3: KIAA0216 NUC 3913-4771 (prey) (protein, human, UniProt Q92614 1255-1540, looked up)
chain: QIRNKDEEIQQLRSKLEKAEKERNELRLNSDRLESRISELTSELTDERNTGESASQLLDAETAERLRAEKEMKELQTQYDALKKQMEVMEMEVMEARLIRAAEINGEVDDDDAGGEWRLKYERAVREVDFTKKRLQQEFEDKLEVEQQNKRQLERRLGDLQADSEESQRALQQLKKKCQRLTAELQDTKLHLEGQQVRNHELEKKQRRFDSELSQAHEEAQREKLQREKLQREKDMLLAEAFSLKQQLEEKDMDIAGFTQKVVSLEAELQDISSQESKDEASLAKV
B3: the binding entry in [6] and in assay [7] was “binds” each time.

B4: ZFM1 NUC 910-1171 (prey) (protein, human, UniProt Q15637 177-263, looked up)
chain: IRGKGSVKEGKVGRKDGQMLPGEDEPLHALVTANTMENVKKAVEQIRNILKQGIETPEDQNDLRKMQLRELARLNGTLREDDNRILR
On to B4, for which the binding entry in assay [6] and in [7] was “binds” each time.

B5: Homer-3 (construct not stated) (protein, UniProt Q9NSC5 1-361, looked up)
chain: MSTAREQPIFSTRAHVFQIDPATKRNWIPAGKHALTVSYFYDATRNVYRIISIGGAKAIINSTVTPNMTFTKTSQKFGQWADSRANTVYGLGFASEQHLTQFAEKFQEVKEAARLAREKSQDGGELTSPALGLASHQVPPSPLVSANGPGEEKLFRSQSADAPGPTERERLKKMLSEGSVGEVQWEAEFFALQDSNNKLAGALREANAAAAQWRQQLEAQRAEAERLRQRVAELEAQAASEVTPTGEKEGLGQGQSLEQLEALVQTKDQEIQTLKSQTGGPREALEAAEREETQQKVQDLETRNAELEHQLRAMERSLEEARAERERARAEVGRAAQLLDVSLFELSELREGLARLAEAAP
With B5, the binding entry with MNK1 is on record as “binds”.

B6: KIAA1026 NUC 765-1194 (prey) (protein, human, UniProt Q674X7 206-348, looked up)
chain: WELRRQAKEATDHATALRSQLDLKDNRMKELEAELAMAKQSLATLTKDVPKRHSLAMPGETVLNGNQEWVVQADLPLTAAIRQSQQTLYHSHPPHPADRQAVRVSPCHSRQPSVISDASAAEGDRSSTPSDINSPRHRTHSLC
Regarding B6, the binding result in [6] and in assay [7] was “binds” each time.

B7: ZFM1 (construct not stated) (protein, UniProt Q15637 1-639, looked up)
chain: MATGANATPLDFPSKKRKRSRWNQDTMEQKTVIPGMPTVIPPGLTREQERAYIVQLQIEDLTRKLRTGDLGIPPNPEDRSPSPEPIYNSEGKRLNTREFRTRKKLEEERHNLITEMVALNPDFKPPADYKPPATRVSDKVMIPQDEYPEINFVGLLIGPRGNTLKNIEKECNAKIMIRGKGSVKEGKVGRKDGQMLPGEDEPLHALVTANTMENVKKAVEQIRNILKQGIETPEDQNDLRKMQLRELARLNGTLREDDNRILRPWQSSETRSITNTTVCTKCGGAGHIASDCKFQRPGDPQSAQDKARMDKEYLSLMAELGEAPVPASVGSTSGPATTPLASAPRPAAPANNPPPPSLMSTTQSRPPWMNSGPSESRPYHGMHGGGPGGPGGGPHSFPHPLPSLTGGHGGHPMQHNPNGPPPPWMQPPPPPMNQGPHPPGHHGPPPMDQYLGSTPVGSGVYRLHQGKGMMPPPPMGMMPPPPPPPSGQPPPPPSGPLPPWQQQQQQPPPPPPPSSSMASSTPLPWQQNTTTTTTSAGTGSIPPWQQQQAAAAASPGAPQMQGNPTMVPLPPGVQPPLPPGAPPPPPPPPPGSAGMMYAPPPPPPPPMDPSNFVTMMGMGVAGMPPFGMPPAPPPPPPQN
On to B7, for which the binding entry with LSF is recorded as “binds”.

B8: SEI1 NUC 131-549 (prey) (protein, human, UniProt Q9UHV2 18-157, looked up)
chain: PLAVDSWWLDPGHTAVAQAPPAVASSSLFDLSVLKLHHSLQQSEPDLRHLVLVVNTLRRIQASMAPAAALPPVPSPPAAPSVADNLLASSDAALSASMASLLEDLSHIEGLSQAPQPLADEGPPGRSIGGAAPSLGALDL
With B8, the binding entry in assay [8] and in [9] was “binds” throughout.

B9: Golgi Apparatus Protein 88 (GM88) NUC 909-1257 (prey) (protein, human, UniProt A7E2F4 237-352, looked up)
chain: QILLKGHVTQLKESLKEVQLERDQYAEQIKGERAQWQQRMRKMSQEVCTLKEEKKHDTHRVEELERSLSRLKNQMAEPLPPDAPAVSSEVELQDLRKELERVAGELQAQVENNQCI
Consider B9, for which the binding result in assay [6] and in assay [7] was “binds” in each case.

B10: Highly Charged Amino Acid Sequence (X59131) NUC 2832-3411 (prey) (protein, human, UniProt Q5W0Q7 900-1092, looked up)
chain: KKKLAALMSSPQSRTVRSENLEQVPQDGSPNDCESIEDLLNELPYPIDIASESACTTVPGVSLYSSQTHEEILAELLSPTPVSTELSENGEGDFRYLGMGDSHIPPPVPSEFNDVSQNTHLRQDHNYCSPTKKNPCEVQPDSLTNNACVRTLNLESPMKTDIFDEFFSSSALNALANDTLDLPHFDEYLFENY
On to B10, for which the binding result in assay [6] and in assay [7] was “binds” each time.

B11: Kinectin NUC 3647-4140 (prey) (protein, human, UniProt Q86UP2 1194-1357, looked up)
chain: SENKDIENLRREREHLEMELEKAEMERSTYVTEVRELKDLLTELQKKLDDSYSEAVRQNEELNLLKAQLNETLTKLRTEQNERQKVAGDLHKAQQSLELIQSKIVKAAGDTTVIENSDVSPETESSEKETMSVSLNQTVTQLQQLLQAVNQQLTKEKEHYQVLE
B11: the binding entry in [3] and in assay [5] was “binds” throughout.

B12: Bicaudal-D NUC 210-1395 (prey) (protein, human, UniProt Q96G01 31-425, looked up)
chain: KIQAAEYGLVVLEEKLTLKQQYDELEAEYDSLKQELEQLKEAFGQSFSIHRKVAEDGETREETLLQESASKEAYYLGKILEMQNELKQSRAVVTNVQAENERLTAVVQDLKENNEMVELQRIRMKDEIREYKFREARLLQDYTELEEENITLQKLVSTLKQNQVEYEGLKHEIKRFEEETVLLNSQLEDAIRLKEIAEHQLEEALETLKNEREQKNNLRKELSQYISLNDNHISISVDGLKFAEDGSEPNNDDKMNGHIHGPLVKLNGDYRTPTLRKGESLNPVSDLFSELNISEIQKLKQQLMQVEREKAILLANLQESQTQLEHTKGALTEQHERVHRLTEHVNAMRGLQSSKELKAELDGEKGRDSGEEAHDYEVDINGLEILECKYRVAVT
Regarding B12, the binding entry in assay [10] and in assay [11] was “binds” each time.
